Percent effect of library compounds

The filed quantity is “Percent Effect” (%). The controls that fix the scale are not given in the record; negative values are as filed. This is an unselected part of the compounds tested. Two or more numbers in one place are separate tests of the same structure; such repeats can differ widely.

A: 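Whole-cell growth test on Mycobacterium tuberculosis, read after 4 days in a medium based on cholesterol and the lipid DPPC; the read-out is not stated. Tested at 50 µM. The record gives no direction; compounds that gave an IC50 in retests scored well above the rest, so higher reads as more growth inhibition. Size under these conditions: about 69,000 compounds, about 370 of them at 50% or above in at least one test.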
B: 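Whole-cell growth test on Mycobacterium tuberculosis, read after 3 days in glucose-containing 7H9 medium; the read-out is not stated. Tested at 50 µM. The record gives no direction; compounds that gave an IC50 in retests scored well above the rest, so higher reads as more growth inhibition. About 69,000 compounds were tested under these conditions; 1.1% (about 760) showed 50% or more at least once.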

{"compound": "Cc1noc(-c2ccc(N3CCC[C@H]3CO)nc2)n1", "A": 6.518, "B": 4.444}
{"compound": "Cc1cc(C(=O)N2CCc3[nH]nc(-c4ccc5c(c4)OCO5)c3C2)no1", "A": "0.9561 & -3.725", "B": "-13 & 1.564"}
{"compound": "O=C(O)C(F)(F)F.[H][C@@]12C[C@H](C(=O)NC)CN(Cc3ccc(C)o3)[C@]1([H])CCO2", "A": -9.327, "B": 7.6}
{"compound": "O=C(Nc1ccnc(OC2CCOC2)c1)c1cc(F)ccc1F", "stereo": "stereo not given", "A": -23.24, "B": "-4.894 & -4.759"}
{"compound": "CC(C)CN1CCC2(CCN(Cc3nccs3)CC2)C1=O.O=C(O)C(F)(F)F", "A": 13.32, "B": "8.968 & 2.061"}
{"compound": "CN(CCN1CCCCCC1)C(=O)c1cc(CN2CCCC(O)C2)on1", "stereo": "stereo not given", "A": 1.714, "B": -2.341}
{"compound": "Cc1cc(C(=O)N[C@H]2CN(CCC(N)=O)C[C@@H]2C2CC2)sc1C", "A": -18.66, "B": -12.54}
{"compound": "CC(C)Oc1nnc(SCC(=O)NCC(=O)N2CCCC2)s1", "A": 2.225, "B": -1.46}
{"compound": "COc1ccc2c(c1)c(C(=O)Nc1n[nH]c(C(C)C)n1)cn2C(C)C", "A": -2.037, "B": "-6.303 & -10.81"}
{"compound": "CCN(CC)C(=O)c1cc(-c2cccc(Cl)c2)no1", "A": -13.95, "B": "3.912 & 16.88"}
{"compound": "O=C(O)C(F)(F)F.[H][C@]12CCN(CC3CC3)C[C@@]1([H])OCCN(C(=O)c1ccco1)C2", "A": "-5.558 & 14.84", "B": -2.056}
{"compound": "O=C(Cn1cnc2cc3c(cc21)OCCCO3)NC1CCCCC1", "A": -16.36, "B": -12.79}
{"compound": "CC(C)CN1CCc2[nH]cnc2C12CCN(C(=O)c1ccnn1C)CC2", "A": 6.007, "B": 14.51}
{"compound": "c1ccc(C2CCCN(Cc3cc4n(n3)CCNC4)CC2)cc1", "stereo": "stereo not given", "A": 4.43, "B": 26.48}
{"compound": "Cc1noc(C)c1CN(C)Cc1csc(-c2ccc(F)cc2)n1", "A": 10.66, "B": "22.65 & 6.227"}
{"compound": "Cc1cc(C)c2cc(CNCc3cccnc3)c3nn(C)c(=O)n3c2c1", "A": -1.423, "B": 18.44}
{"compound": "CN(Cc1ccc(OCC(=O)N2CCOCC2)cc1)S(C)(=O)=O", "A": 15.58, "B": "1.93 & -31.53"}
{"compound": "O=C(C1COc2ccccc2O1)N1Cc2cnn(CCO)c2C1", "stereo": "stereo not given", "A": "-8.209 & -3.102", "B": -3.244}
{"compound": "CCc1noc(C(C)Sc2nnc(C3CC3)n2CC(N)=O)n1", "stereo": "stereo not given", "A": -2.099, "B": -1.555}
{"compound": "COCC1Cn2nnc(-c3cnn(C)c3)c2CN1Cc1ccc(C)s1.O=C(O)C(F)(F)F", "stereo": "stereo not given", "A": "-2.681 & 1.377", "B": 17.44}
{"compound": "CCn1cnnc1CNC(=O)c1ccc(Cl)cc1I", "A": 1.866, "B": -17.55}
{"compound": "CCN1CCCC12CCN(C(=O)c1nccn1C)CC2.O=C(O)C(F)(F)F", "A": 3.361, "B": "-4.279 & 9.487"}
{"compound": "C[C@H](NS(C)(=O)=O)C(=O)NCc1cc(-c2ccco2)n[nH]1", "A": 10.65, "B": 28.73}
{"compound": "O=C(C1CCOC1)N1CCC2(CC1)COCCN(Cc1ccncc1)C2.O=C(O)C(F)(F)F.O=C(O)C(F)(F)F", "stereo": "stereo not given", "A": "-4.788 & 1.473", "B": -6.725}
{"compound": "NCCc1nc(N[C@@H](CO)c2ccccc2)c2ccccc2n1", "A": 7.624, "B": "-13.6 & -0.05399"}
{"compound": "O=C(NCc1ccc2c(c1)OCO2)c1ccccc1C1CCNC1", "stereo": "stereo not given", "A": -17.41, "B": -3.767}
{"compound": "CCNC(=O)[C@@H]1C[C@@H](N)CN1C(=O)Cc1cc(C)ccc1C", "A": "-19 & 0.6762", "B": -34.18}
{"compound": "CNS(=O)(=O)c1ccc(CN2CCCN(c3ccccc3)CC2)cc1", "A": -7.814, "B": "5.122 & -1.818"}
{"compound": "CC1CCCCN1C(=O)c1ccc(=O)[nH]n1", "stereo": "stereo not given", "A": -3.229, "B": 14.47}
{"compound": "CCC(=O)c1ccc(OCC(=O)NC(C)c2nnc(C)[nH]2)cc1", "stereo": "stereo not given", "A": -13.84, "B": -5.293}
{"compound": "NC(=O)NCCC(=O)NCc1nn(-c2ccccc2)c2c1CCC2", "A": -2.285, "B": -13.07}

Some entries from above, unchanged:

| compound | A | B |
|---|---|---|
| `CC(C)CN1CCC2(CCN(Cc3nccs3)CC2)C1=O.O=C(O)C(F)(F)F` | 13.32% | 8.968% & 2.061% |
| `Cc1cc(C(=O)N2CCc3[nH]nc(-c4ccc5c(c4)OCO5)c3C2)no1` | 0.9561% & -3.725% | -13% & 1.564% |
| `CCN(CC)C(=O)c1cc(-c2cccc(Cl)c2)no1` | -13.95% | 3.912% & 16.88% |

Data taken from ChEMBL document CHEMBL3988442, “University of Dundee, Small-Polar-MMV Screening Library” (2021).